{"source": "PubChem BioAssay AID493246 | Drosophila RNAi Screening Center | 2011", "aim": "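Genes fly cells need to grow and stay alive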 (primary screen)", "cells": "Drosophila Kc and S2R+ cells", "reagent": "long dsRNA against Drosophila genes", "measured": "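Cell number per well after knock-down, printed as raw plate values; calls were based on per-plate z-scores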", "reading the numbers": "Kc cell number and S2R+ cell number: higher = more cells remaining", "rule for the call": "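Active when the per-plate z-score of cell number is 3 or more in the direction of fewer cells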", "note": "In all, the deposit lists about 21,000 reagents; below is an unselected part of those with a known target gene and a result. Over the whole deposit, 429 (2%) are marked active. 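Values are raw and not normalised between plates; calls rest on per-plate z-scores that were not deposited.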 Entries without a mark were called inactive. Not stated in the record: the amount of reagent, the time to read-out."}
{"target": "Ada2b", "DRSC id": "DRSC16531", "Kc cell number, rep 1": 1.57e6, "Kc cell number, rep 2": 1.58e6, "S2R+ cell number, rep 1": 1.46e6, "S2R+ cell number, rep 2": 1.56e6}
{"target": "Or59a", "DRSC id": "DRSC04631", "Kc cell number, rep 1": 1.48e6, "Kc cell number, rep 2": 1.51e6, "S2R+ cell number, rep 1": 1.25e6, "S2R+ cell number, rep 2": 1.36e6}
{"target": "pcs", "DRSC id": "DRSC07042", "Kc cell number, rep 1": 1.38e6, "Kc cell number, rep 2": 1.52e6, "S2R+ cell number, rep 1": 1.06e6, "S2R+ cell number, rep 2": 1.18e6}
{"target": "CG34011", "DRSC id": "DRSC00888", "Kc cell number, rep 1": 1.48e6, "Kc cell number, rep 2": 1.50e6, "S2R+ cell number, rep 1": 1.02e6, "S2R+ cell number, rep 2": 1.05e6}
{"target": "CG32564", "DRSC id": "DRSC19933", "Kc cell number, rep 1": 1.56e6, "Kc cell number, rep 2": 1.55e6, "S2R+ cell number, rep 1": 1.13e6, "S2R+ cell number, rep 2": 1.25e6}
{"target": "daed", "DRSC id": "DRSC00299", "Kc cell number, rep 1": 1.33e6, "Kc cell number, rep 2": 1.37e6, "S2R+ cell number, rep 1": 6.43e5, "S2R+ cell number, rep 2": 6.84e5}
{"target": "CG8468", "DRSC id": "DRSC07190", "Kc cell number, rep 1": 1.71e6, "Kc cell number, rep 2": 1.81e6, "S2R+ cell number, rep 1": 1.40e6, "S2R+ cell number, rep 2": 1.55e6}
{"target": "unc80", "DRSC id": "DRSC15329", "Kc cell number, rep 1": 1.53e6, "Kc cell number, rep 2": 1.51e6, "S2R+ cell number, rep 1": 1.02e6, "S2R+ cell number, rep 2": 1.16e6}
{"target": "PCNA2", "DRSC id": "DRSC02030", "Kc cell number, rep 1": 1.65e6, "Kc cell number, rep 2": 1.74e6, "S2R+ cell number, rep 1": 1.37e6, "S2R+ cell number, rep 2": 7.67e5}
{"target": "Atet", "DRSC id": "DRSC00263", "Kc cell number, rep 1": 1.62e6, "Kc cell number, rep 2": 1.50e6, "S2R+ cell number, rep 1": 1.09e6, "S2R+ cell number, rep 2": 1.28e6}
{"target": "trv", "DRSC id": "DRSC13846", "Kc cell number, rep 1": 1.02e6, "Kc cell number, rep 2": 1.40e6, "S2R+ cell number, rep 1": 1.08e6, "S2R+ cell number, rep 2": 1.06e6}
{"target": "trv", "DRSC id": "DRSC14559", "Kc cell number, rep 1": 1.41e6, "Kc cell number, rep 2": 1.49e6, "S2R+ cell number, rep 1": 9.38e5, "S2R+ cell number, rep 2": 1.05e6}
{"target": "trv", "DRSC id": "DRSC14560", "Kc cell number, rep 1": 1.41e6, "Kc cell number, rep 2": 1.43e6, "S2R+ cell number, rep 1": 9.57e5, "S2R+ cell number, rep 2": 1.08e6}
{"target": "trv", "DRSC id": "DRSC14561", "Kc cell number, rep 1": 1.50e6, "Kc cell number, rep 2": 1.51e6, "S2R+ cell number, rep 1": 9.79e5, "S2R+ cell number, rep 2": 1.11e6}

2 successive records already listed, quoted:
{"target": "CG34011", "DRSC id": "DRSC00888", "Kc cell number, rep 1": 1.48e6, "Kc cell number, rep 2": 1.50e6, "S2R+ cell number, rep 1": 1.02e6, "S2R+ cell number, rep 2": 1.05e6}
{"target": "CG32564", "DRSC id": "DRSC19933", "Kc cell number, rep 1": 1.56e6, "Kc cell number, rep 2": 1.55e6, "S2R+ cell number, rep 1": 1.13e6, "S2R+ cell number, rep 2": 1.25e6}
